Among the data in patent US20230312698A1 (NANJING GENSCRIPT BIOTECH, published 2023) are binding values, retold here.

The chains behind the UniProt entries cited, without tags or fusion partners. Residues count along the entry.
UniProt O15123, residues 19-496: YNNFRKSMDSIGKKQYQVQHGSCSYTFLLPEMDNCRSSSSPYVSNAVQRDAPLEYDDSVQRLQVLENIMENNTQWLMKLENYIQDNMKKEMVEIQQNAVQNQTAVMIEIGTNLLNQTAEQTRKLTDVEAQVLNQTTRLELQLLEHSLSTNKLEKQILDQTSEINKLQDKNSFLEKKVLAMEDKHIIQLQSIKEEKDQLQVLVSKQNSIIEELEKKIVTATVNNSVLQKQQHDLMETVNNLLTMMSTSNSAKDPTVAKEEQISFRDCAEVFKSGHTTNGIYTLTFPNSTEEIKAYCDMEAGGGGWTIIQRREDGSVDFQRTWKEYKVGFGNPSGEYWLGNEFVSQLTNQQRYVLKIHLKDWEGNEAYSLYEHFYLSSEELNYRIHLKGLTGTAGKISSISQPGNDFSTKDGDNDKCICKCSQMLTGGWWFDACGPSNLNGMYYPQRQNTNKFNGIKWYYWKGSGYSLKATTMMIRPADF

For assay [1], the target named is membrane-anchored cyno Ang2 protein expressed on CHO-K1 cells (cyno). The assay can be described thus: flow cytometry on CHO-K1 cells expressing membrane-anchored cyno Ang2.
Assay [2] concerns the target membrane-anchored human Ang2 protein expressed on CHO-K1 cells (human) (UniProt O15123). Put plainly: flow cytometry on CHO-K1 cells expressing membrane-anchored human Ang2. In general terms: In flow cytometry, cells or beads pass a laser one at a time.

These are yes or no findings as the source states them, for the method shown. Some binding calls cover weakened binding; strength is not graded here.

B1: 42A2A6 (antibody, V domains shown)
VH: DVQLQESGPGLVKPSQSLSLTCTVTGYSITSDYAWNWIRQFPGNKLEWMGFINYSGTTSYNPSLKSRISLTRDTSKNQFFLQLNSVTTEDTATYYCARWGYSDFLYYFDYWGQGTTLTVSS
VL: QIVLSQSPAILSASPGEKVTMTCRASSSVSYIHWYQQKPGYSPKPWIYATSNLASGVPARFSGGGSGTSYSLTISRVEAEDAATYYCQQWSNNPWTFGGGTKLEIK
notes: Hybridoma antibody purified with Protein-A beads
Take B1: the binding result in assay [1] and in assay [2] was “binds” each time.

B2: 46H3H3 (antibody, V domains shown)
VH: EVKLVESGGGLVQPGGSRKLSCAASGFTFSDYGMVWVRQAPGKGLEWVAYIGSGRSTIYYADTVKGRFTISRDNPKNTLFLQMSSLRSEDTAMYYCAREDNGYSYAMDYWGQGTSVTVSS
VL: DIQMTQSPASQSASLGESVTITCLASQTIGTWLAWYQQKPGKSPQLLIYAATSLADGVPSRFSGSGSGTKFSFKISSLQAEDFVSYYCQQLYSTPLTFGAGTKLELK
notes: as for B1
B2: the binding entry in assay [1] and in assay [2] was “binds” in each case.

B3: 4D8F2 (antibody, V domains shown)
VH: DVQLQESGPGLVKPSQSLSLTCTVTGYSITSDYAWNWIRQFPGNKLEWMGYISYSGSTSYNPSLKSRISITRDTSKNQFFLQLNSVTTEDTATYYCARGVRGDMDYWGQGTSVTVSS
VL: SIVMTQTPKFLLVSAGDRVTITCKASQSVSNDVAWYQQKPGQSPKLLIYYASNRYTGVPDRFTGSGYGTDFTFTISTVQAEDLAVYFCQQDYSSPFTFGSGTKLEIK
notes: as for B1
Regarding B3, the binding entry in assay [1] and in assay [2] was “binds” throughout.

B4: 5A7B9 (antibody, V domains shown)
VH: QIQLVQSGPELKKPGETVKISCKASGYTFTNYGVNWVKQAPGKGLKWMGWINSYSGVPTYADDFKGRFAFSLETSASTAYLQINNLKNEDTATYFCARGENNYYGGSYDWGQGTTLTVSS
VL: SIVMTQTPKFLLVSAGDRVTITCKASQSVSNDVAWYQQKPGQSPKLLIYYASNRYTGVPDRFTGSGYGTDFTFTISTVQAEDLAVYFCQQDYSSPLTFGAGTKLELK
notes: as for B1
As for B4, the binding entry in assay [1] and in assay [2] was “binds” each time.

B5: 46F3H4 (antibody, V domains shown)
VH: EVQLHQSGPELVKPGASVKMSCKASGYTFTNYYIHWVKQSHGKSIEWIGYIYPNNGDTTYNQKFKGKATLTVDKSSSIAYMELRSLTSEDSAVYYCAVVSYSNYVAGAMDYWGQGTSVTVSS
VL: SIVMTQTPKFLLVSAGDRVTITCKASQSVSNDVAWYQQKPGQSPKLLIYFASNRYTGVPDRFTGSGYGTDFTFTISTVQAEDLAVYFCQQDYSSPYTFGGGTKLEIK
notes: as for B1
On to B5, for which the binding entry in assay [1] and in assay [2] was “binds” each time.

B6: 42C3A4 (antibody, V domains shown)
VH: EVKLEESGGGLVQPGGSMKLSCVASGITFSNYWMDWVRQSPEKGLEWVAEIRLKSNNYATHYAESVKGRFTISRDDSKNSVYLQMNNLRAEDTGIYYCTRGAPLFGGYYKGVYFDYWGQGTTLTVSS
VL: SFVMTQTPKSLLASAGDRVTITCQASQSVSNEVAWYQQKPGQSPKLLIYYASSRYTGVPDRFAGSGYGTDFTFTISTVQAEDLAVYFCQQDYNSPYTFGGGTKLEIK
notes: as for B1
With B6, the binding result in assay [1] and in assay [2] was “binds” each time.

B7: 49E4C2 (antibody, V domains shown)
VH: EVKLEESGGGLVQPGGSMKLSCVASGITFSNYWMDWVRQSPEKGLEWVAEIRLKSNNYATHYAESVKGRFTISRDDSKSSVYLQMNNLRAEDTGIYYCTRGAPLFDGYYKGVYFDYWGQGTTLTVSS
VL: STVMTQTPKSLLASAGDRVAITCKASQSVSNEVAWYQQKPGLSPKLLIYYASNRYTGVPDRFTGSGYGTDFTFTISTVQAEDLAVYFCQQDYNSPYTFGGGTKLEIK
notes: as for B1
Consider B7, for which the binding result in assay [1] and in assay [2] was “binds” in each case.
